Values from PubChem BioAssay AID743454 (Peter MacCallum Cancer Centre, 2014).
In all, the deposit lists about 18,000 reagents; below is a random part of them. 450 of all reagents (2.5%) count as active. 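Single biological run; no consistent viability z cut-off exists, so the class columns, not z-scores, define the calls.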

Purpose: 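Genes whose loss kills vorinostat-resistant colon cancer cells under vorinostat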 (primary screen)
Cell system: human HCT116-VR colon cancer cells, selected for vorinostat resistance
Knock-down reagent: siRNA pool against human genes, 40 nM siRNA pool
Time to read-out: vorinostat for 24 h, read-out about 72 h after transfection
Challenge: vorinostat at 2.5 µM final
Detection: 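Cell viability by CellTiter-Fluor and caspase 3/7 activity by luminescence, each scaled to mock wells per plate, duplicates averaged, then robust z-scored over all plates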
Reading the numbers: viability robust z-score: higher = more viable cells than screen typical; caspase robust z-score: higher = more caspase 3/7 activity than screen typical
Hit rule: 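Hits are knock-downs in viability class RV1/RV2 or caspase class CA1/CA2, excluding ones that killed cells in the no-drug cell-count arm; hits then retested with single siRNAs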

Knock-down of WDSUB1 resulted in: viability hit class no change; caspase hit class no change; viability robust z-score 0.33; caspase robust z-score -0.76; inactive.
RPL7L1 scored viability hit class RV2 (reduced viability); caspase hit class no change; viability robust z-score -3.03; caspase robust z-score 2.11; active.
Knock-down of TBC1D10A resulted in: viability hit class no change; caspase hit class no change; viability robust z-score 0.14; caspase robust z-score -0.84; inactive.
AZGP1 showed viability hit class no change; caspase hit class no change; viability robust z-score -0.94; caspase robust z-score 1.38; inactive.
Knock-down of RPS27A came out at: viability hit class no change; caspase hit class no change; viability robust z-score -4.06; caspase robust z-score -1.88; inactive.
H3C3 scored viability hit class no change; caspase hit class no change; viability robust z-score -0.46; caspase robust z-score 2.91; inactive.
With knock-down of TSG101, the screen gave viability hit class no change; caspase hit class no change; viability robust z-score -0.92; caspase robust z-score 1.96; inactive.
After knock-down of HCRTR2, the screen gave viability hit class no change; caspase hit class no change; viability robust z-score 0.35; caspase robust z-score -0.04; inactive.
RASGRP4 showed viability hit class no change; caspase hit class no change; viability robust z-score 0.12; caspase robust z-score 0.03; inactive.
Knock-down of SPAG16 gave: viability hit class no change; caspase hit class no change; viability robust z-score -0.22; caspase robust z-score 2.62; inactive.

2 entries from above, ordered by “caspase robust z-score”, highest first.
AZGP1: viability hit class = no change; caspase hit class = no change; viability robust z-score = -0.94; caspase robust z-score = 1.38; Call = inactive
RPS27A: viability hit class = no change; caspase hit class = no change; viability robust z-score = -4.06; caspase robust z-score = -1.88; Call = inactive

Next records follow:
SP1 showed viability hit class no change; caspase hit class no change; viability robust z-score -2.12; caspase robust z-score 4.72; inactive.
For FBXO38, the entry reads viability hit class no change; caspase hit class no change; viability robust z-score -0.4; caspase robust z-score -0.66; inactive.
Knock-down of ADD2 gave: viability hit class no change; caspase hit class no change; viability robust z-score 0.39; caspase robust z-score 0.35; inactive.
For NAV2, the values are viability hit class no change; caspase hit class no change; viability robust z-score -1.73; caspase robust z-score 0.15; inactive.
Against PLCXD3 the deposit lists viability hit class no change; caspase hit class no change; viability robust z-score -0.12; caspase robust z-score 1.01; inactive.
For TMEM107, the values are viability hit class no change; caspase hit class no change; viability robust z-score -2.08; caspase robust z-score 1.47; inactive.
Against GPR18, the values are viability hit class no change; caspase hit class no change; viability robust z-score -0.88; caspase robust z-score -0.95; inactive.
For OR2H2, the values are viability hit class no change; caspase hit class no change; viability robust z-score 0.3; caspase robust z-score -0.72; inactive.
CFAP45 showed viability hit class no change; caspase hit class no change; viability robust z-score 0.34; caspase robust z-score 0.42; inactive.
Against SOD1, the entry reads viability hit class no change; caspase hit class no change; viability robust z-score 1.68; caspase robust z-score 3.49; inactive.
Silencing of GLDN resulted in: viability hit class no change; caspase hit class no change; viability robust z-score 0.2; caspase robust z-score -0.75; inactive.
